Results published in the RNAGym collection of RNA variant scans (doi:10.1126/science.aae0568).
Variants at the background level are over-represented here.

B1: tRNA (parent)
chain: GUUCCGUUGGCGUAAUGGUAACGCGUCUCCCUCCUAAGGAGAAGACUGCGGGUUCGAGUCCCGUACGGAACG

Variants of: B1
Test: yeast fitness relative to wild type (ratio to wild type); higher = fitter; tRNA-Arg(CCU), competitive growth, 37 C, YPD
Procedure, shortened: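 Genotype frequency changes were the basis for Darwinian fitness relative to wild type. The frequencies came from 100-nucleotide paired-end sequencing of gene amplicons from the start population and each end population of pooled yeast strains with tRNA-Arg(CCU) gene variants at the native locus. Competition ran in YPD at 37°C for 24 hours in six replicates, genotypes needed ≥ 100 starting reads, and estimates < 0.5 were set to 0.5.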

G10A A21C C22A G25C G38A and G10A A15G A36G U47C cannot be ordered by yeast fitness: at most 0.5 for the first, at most 0.5 for the second.

G23C A42C A43C G48A C62A and C11U C30A A43U U47A C62A cannot be ordered by yeast fitness: at most 0.5 for the first, at most 0.5 for the second.

Going from A14U G48C to C31G U35C C66U, the yeast fitness falls from 0.714 to 0.558.

Going from C5U C22G C27U to U2G U3A C5U U7C U8A A20C U35C A37U A45G A57C, the yeast fitness falls from 0.612 to at most 0.5.

Going from C11U A21U C31G G39C C60G to G48A G63A, the yeast fitness rises from at most 0.5 to 0.887.

Compared with A20U C30G U47C, G9C G48A A69C is higher in yeast fitness: at most 0.5 for the first, 0.627 for the second.

Compared with U2C U3C G23C C31G C33U A42G G52C G58C, A20G G38A is higher in yeast fitness: at most 0.5 for the first, 0.912 for the second.

Compared with G38U G48A A70U, G10C U13A C30A A42C G56A A57U is lower in yeast fitness: 0.652 for the first, at most 0.5 for the second.

C5A U19G G50A and A15G G18A C24G U47C C66U A69U cannot be ordered by yeast fitness: at most 0.5 for the first, at most 0.5 for the second.

G18A U26G G39C A69C and C4A C11U C29G U32A C62A cannot be ordered by yeast fitness: at most 0.5 for the first, at most 0.5 for the second.

Going from A57G to U13G C33G C61G, the yeast fitness falls from 0.998 to at most 0.5.

A45C G50C G51C C55U G68A A70C and G6A C22G G25A U47A A70C cannot be ordered by yeast fitness: at most 0.5 for the first, at most 0.5 for the second.

G23C U26C C46G C55U and G12A U13C A15U C30U A45C A57G C62U cannot be ordered by yeast fitness: at most 0.5 for the first, at most 0.5 for the second.

First: C27G A36C C46U G51C C66U
Second: A45C U53C
The yeast fitness of the first is lower: at most 0.5 for the first, 0.823 for the second.

C22A C30U G52A and C4U C5A A15U C34U cannot be ordered by yeast fitness: at most 0.5 for the first, at most 0.5 for the second.

G12A U35C A42G A65U and U2G U19A C61A C62U A65U A69C cannot be ordered by yeast fitness: at most 0.5 for the first, at most 0.5 for the second.

G6A G17A G67U and A45U G51C G67C cannot be ordered by yeast fitness: at most 0.5 for the first, at most 0.5 for the second.

A20C C34A A37G and C4A U7C G41A C49A U54C cannot be ordered by yeast fitness: at most 0.5 for the first, at most 0.5 for the second.

Going from G17A A42G U64A to G17C C34G A37C C62A A69G, the yeast fitness falls from 0.58 to at most 0.5.

C31U G41C A43C C60G G68C and C4U U8A C30U G51C cannot be ordered by yeast fitness: at most 0.5 for the first, at most 0.5 for the second.

C4A C29U A37G G39C C49U and C4U G17C U26A A45G cannot be ordered by yeast fitness: at most 0.5 for the first, at most 0.5 for the second.

Going from C5G U26C C60G C61G to A43G G56A C66U G68U, the yeast fitness rises from at most 0.5 to 0.557.

Going from G38A C46A A57G to C11U A45U G58C A69C, the yeast fitness falls from 0.769 to at most 0.5.

C5U G25C U35C A42U C62G and U3A C5A G6C A15G U16A U26G U32A C34G C55G G68A A70C cannot be ordered by yeast fitness: at most 0.5 for the first, at most 0.5 for the second.

U8C C24G G38C U53G A57G and U3A C62A C66G cannot be ordered by yeast fitness: at most 0.5 for the first, at most 0.5 for the second.

G17A C29U A37G A65G and U26C U59A G67A cannot be ordered by yeast fitness: at most 0.5 for the first, at most 0.5 for the second.

C11A C33U A65G C66U and C4U C22G U28A A36U cannot be ordered by yeast fitness: at most 0.5 for the first, at most 0.5 for the second.

U2C C4U C11U A45U A57U and A15U G39A A65U cannot be ordered by yeast fitness: at most 0.5 for the first, at most 0.5 for the second.

First: C34G A37G C62A
Second: A20U A37G
The yeast fitness of the first is lower: at most 0.5 for the first, 0.892 for the second.

C5G G25A C30A C31A C49U C55G and A20G U35A A37G A43U A45C cannot be ordered by yeast fitness: at most 0.5 for the first, at most 0.5 for the second.

U2G C5A U19A A65U and G9C C24U G51A U59A cannot be ordered by yeast fitness: at most 0.5 for the first, at most 0.5 for the second.

C5U C24G G39A A43C and U3A G23A C49A cannot be ordered by yeast fitness: at most 0.5 for the first, at most 0.5 for the second.

C27U C34U C55A and C22G G25A C33G C49U G56C cannot be ordered by yeast fitness: at most 0.5 for the first, at most 0.5 for the second.

G10C U13C G18C C27U C33G U64A G68C A70U and C4A U7A U8A C60A cannot be ordered by yeast fitness: at most 0.5 for the first, at most 0.5 for the second.

U3C G9C C11U U19C C30G A43C and C5G U26G G38C G51C cannot be ordered by yeast fitness: at most 0.5 for the first, at most 0.5 for the second.

C5U A37C C46U U53C and C11G U19G A45C cannot be ordered by yeast fitness: at most 0.5 for the first, at most 0.5 for the second.

U26G C60U A69U and G6A A14U C27U G67A cannot be ordered by yeast fitness: at most 0.5 for the first, at most 0.5 for the second.

Compared with A14G U47G G56A, G25C C33A A57U A69U is higher in yeast fitness: at most 0.5 for the first, 0.548 for the second.

C29A G67U G68C A69U and U7C U8C C61U G68C cannot be ordered by yeast fitness: at most 0.5 for the first, at most 0.5 for the second.

G17C C46U G50C C66G and C5U A15U C30G C33G A40G A43U cannot be ordered by yeast fitness: at most 0.5 for the first, at most 0.5 for the second.

C11G A15G G68C and A14G C27U U28G G58C G63C cannot be ordered by yeast fitness: at most 0.5 for the first, at most 0.5 for the second.

A21U A45U C49U and G17A C24G C27G A42U A65U cannot be ordered by yeast fitness: at most 0.5 for the first, at most 0.5 for the second.
